About 2,100 (0.66%) of roughly 320,000 compounds were called active. The call rests on the fitted dose curve; in most records, active means well fitted inhibition curve with a large enough effect in the signal ratio, with a control signal flat (not every such curve was filed as active); inconclusive means small, poorly fitted or top-dose-only effect, or effect the other way, or a change in a side signal; inactive means flat fitted curve, though single readings scatter; the % refers to the signal ratio. Inconclusive results, whose numbers are uncertain, are shown. Potencies beside an inconclusive call are fits to weak or partial responses and may not hold up.
Experiment: qHTS Assay for Lipid Storage Modulators in Drosophila S3 Cells
Conditions: BODIPY lipid droplet fluorescence, 18-24 h, cells fed with added oleic acid; lipid storage change, negative = inhibition: at 46.1 µM (top of the series) unless noted
How it was run: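 Drosophila S3 cells loaded with oleic acid (400 uM, as added) and compounds at several concentrations; lipid droplets imaged by 488-nm laser-scanning cytometry, 500–530 nm intensity and object ratio to cell channel. Percent activity normalized to 20 uM Triacsin C.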
On the % scale 0 is the no-effect control and ±100 the full control effect; potency means the concentration at half of the fitted maximal effect.

Row | SMILES | Potency | lipid storage change, negative = inhibition
1 | Cc1cc(C)c(S(=O)(=O)N2CCN=C2c2ccccc2)c(C)c1 | inconclusive: 0.366 µM [rising, full curve, poor fit] | –
2 | O=C(NNC(=O)c1ccc(NC(=O)c2ccccc2)cc1)c1ccccc1 | – | inconclusive: 4.56%
3 | Cc1ccc(NC2CCCN(C(=O)CSc3ccncc3)C2)cc1C (stereo not given) | – | inconclusive: 47.9%
4 | Cc1cc(/C=C(\C#N)C(=O)NCc2ccccc2)cc(C)c1O | inconclusive: 29.1 µM [falling, single point] | –
5 | CCCn1c(N)c(N(CCOC)C(=O)c2cccc(Cl)c2)c(=O)[nH]c1=O | inconclusive: 29.1 µM [falling, single point] | –
6 | CC(=O)Nc1ccc(S(=O)(=O)NCCc2ccccn2)cc1 | – | inconclusive: -5.83%
7 | C=CCn1c(O)c(N=NC(=S)Nc2ccc(OC)c(Cl)c2)c2ccccc21 | – | inconclusive: -55%
8 | CCCCOC(=O)C1=C(C)NC(=O)NC1c1ccc(OC)cc1 (stereo not given) | – | inconclusive: -22.8%
9 | O=C(NCCc1ccccc1)C1CCCN1S(=O)(=O)c1ccc(Cl)cc1 (stereo not given) | – | inconclusive: 495%
10 | O=C(CN1CCC(Cc2ccccc2)CC1)NC(=O)NC1CCCCC1 | inconclusive: 0.231 µM [falling, full curve, poor fit] | –
11 | O=C(Nc1ccccc1)Nc1ccno1 | – | inconclusive: 0.385%
12 | CCOC(=O)/C(=C/Nc1ccc(F)c(F)c1)[N+](=O)[O-] | – | inconclusive: -15.8%
13 | O=C(CSc1nc2c(sc3ccccc32)c(=O)n1Cc1ccccc1)NCC1CCCO1 (stereo not given) | – | inconclusive: -9.29%
14 | O=C(Nc1ccc(Cl)c(Cl)c1)N1CCCCCC1 | – | inconclusive: -100%
15 | O=C(N/N=C\c1cccs1)c1sccc1-n1cccc1 | – | inconclusive: -15%
16 | CC1CC(OC(=O)C2CCN(S(=O)(=O)c3ccc(F)cc3)CC2)C(=O)O1 (stereo not given) | – | inconclusive
17 | CCCNC(=O)c1ccc(N2CCC3(CC2)CC(c2ccccc2)=NO3)c(NC(=O)c2cccc(C)c2)c1 | inconclusive: 0.731 µM [activator, full curve] | –
18 | COC(=O)c1sc2[nH]c(=S)n(N)c(=O)c2c1C | – | inconclusive: 20.3%
19 | CCOC(=O)c1c(C)[nH]c(C(=O)OCC(=O)NCc2ccc(C)cc2)c1C | – | inconclusive: -0.0687%
20 | Cc1nn(-c2c(Cl)cc(Cl)cc2Cl)c(=O)c2ccccc12 | – | inconclusive: 98.1%
21 | CCCNC(=O)c1cc2c(C(F)(F)F)nn(C)c2s1 | – | inconclusive: 30.2%
22 | Fc1cccc(-c2n[nH]c(=S)n2-c2ccccc2)c1 | – | inconclusive: -0.504%
23 | COc1ccc(NC(=S)NCCN2CCC(C)CC2)cc1Cl | – | inconclusive: -26%
24 | COc1ccc2c(c1)c(=O)oc1c(C)c(OC(C)C(=O)N[C@@H](Cc3c[nH]c4ccc(O)cc34)C(=O)O)ccc12 (stereo not given in full) | – | inconclusive: 13.1%
25 | O=C(COC(=O)CNC(=O)c1ccco1)Nc1ccc(F)cc1 | – | inconclusive: -44%

Row | SMILES | Potency | lipid storage change, negative = inhibition
26 | O=C(CN1C(=O)CCC1=O)Nc1nc(-c2ccc(Oc3ccccc3)cc2)cs1 | inconclusive: 29.1 µM [falling, single point] | –
27 | Cc1ccc(N(CC(=O)NCCc2ccc(Cl)cc2)S(=O)(=O)c2c(C)noc2C)cc1 | – | inconclusive: -82.1%
28 | Cc1cc(C)c(S(=O)(=O)N2CCCCC2CCNC(=O)C(=O)NCC2CCCO2)c(C)c1 (stereo not given) | inconclusive: 4.61 µM [falling, partial curve, poor fit] | –
29 | Cc1ccc(N2CCN(S(=O)(=O)c3c(C)noc3C)CC2C)cc1 (stereo not given) | inconclusive: 6.51 µM [activator, single point] | –
30 | CCOC(=O)Cc1nnc(Nc2ccc(C(=O)NC)cc2)c2ccccc12 | – | inconclusive: 3%
31 | COc1ccc(CN(C)C(=O)CSc2nnc(C3CC3)n2C2CC2)cc1 | – | inconclusive
32 | COc1c(O)cc2oc(-c3ccc(O)c(O)c3)cc(=O)c2c1O | – | inconclusive: -50.9%
33 | COc1cccc(-c2csc(NC(=O)Oc3ccccc3)n2)c1 | – | inconclusive: 109%
34 | O=C(NCCCN1CCN(c2ccccc2F)CC1)C1CCC(=O)N1C1CCCC1 (stereo not given) | – | inconclusive: 0.144%
35 | Cc1ccc(-n2nc3c(=O)n(CC(=O)c4ccc(F)cc4)nc(C)c3c2C)cc1 | – | inconclusive: 0.423%
36 | Cn1c(=O)c2c(nc(Sc3ncnn3CC(=O)NC(C)(C)C)n2C)n(C)c1=O | – | inconclusive: -10.6%
37 | O=C(Nc1ccc(S(=O)(=O)Nc2ncccn2)cc1)c1ccc(S(=O)(=O)N2CCCC2)cc1 | – | inconclusive: 44.3%
38 | C[N+]1(C2CCC3CCCC2C3O)CCCC1 (stereo not given) | – | inconclusive: -21% [cytotoxic]
39 | COc1ccc(/C=N/n2c(N)nc3ccccc32)cc1OC | inconclusive: 2.31 µM [rising, partial curve] | –
40 | O=[N+]([O-])c1ccccc1CNC(Cc1ccccc1)c1ccccc1 (stereo not given) | inconclusive: 0.0731 µM [falling, single point] | –
41 | CCCCCCCCCCOC(=O)Cn1c(COc2ccccc2)[n+](C)c2ccccc21 | inconclusive: 14.6 µM [falling, single point] | –
42 | O=C1c2ccccc2-c2c1nc1c([n+]2[O-])CCCC1 | inconclusive: 29.1 µM [activator, single point] | –
43 | Cc1cccc(NC(=O)CSc2nc3[nH]ncc3c(=O)[nH]2)c1 | – | inconclusive: 34.6%
44 | CN=Cc1sc2ccccc2c1O | – | inconclusive: -30% [at 0.0737 µM]
45 | COC(=O)Nc1ccc(S(=O)(=O)NCCCCCC(=O)O)cc1 | inconclusive: 6.51 µM [falling, full curve, poor fit] | –
46 | COc1ccccc1OCCNC(=O)c1cc([N+](=O)[O-])cc([N+](=O)[O-])c1 | – | inconclusive: 13.1%
47 | Cc1nc([N+](=O)[O-])cn1CCC#N | – | inconclusive: 29.5%
48 | COc1cc(C(=O)NCC(c2ccco2)N2CCCC2)ccc1OCc1ccccc1 (stereo not given) | – | inconclusive: 8.4%
49 | CC(Sc1nc2scc(-c3ccccc3)c2c(=O)[nH]1)C(=O)NC(N)=O (stereo not given) | inconclusive: 0.651 µM [falling, full curve, poor fit] | –
50 | CCOC(=O)C1(Cc2ccccc2)CCCN(C(=O)c2cnn(CC)c2)C1 (stereo not given) | – | inconclusive: -20.6%

Random excerpt: three records from the list.
Row | SMILES | Potency | lipid storage change, negative = inhibition
18 | COC(=O)c1sc2[nH]c(=S)n(N)c(=O)c2c1C | – | inconclusive: 20.3%
15 | O=C(N/N=C\c1cccs1)c1sccc1-n1cccc1 | – | inconclusive: -15%
36 | Cn1c(=O)c2c(nc(Sc3ncnn3CC(=O)NC(C)(C)C)n2C)n(C)c1=O | – | inconclusive: -10.6%

— PubChem BioAssay AID2685 (National Center for Advancing Translational Sciences (NCATS), 2010)
